{"source": "patent US11414454B2", "about": "“Compositions, methods, and systems for affinity-based protein identification and purification” (Auctus Biologies, Inc., priority 2017, dated 2022)", "note": "No end group written: not given here."}
{"system": "RPtag (large)", "test": "Association/dissociation kinetics of RPtag (small) peptides with RPtag (large) by fluorescence anisotropy", "parameters": "species or system Thermoanaerobacter tengcongensis", "details": "equilibrium non-binding S / binding S* state", "description": "Panel a depicts representative association rate kinetics traces varying native RPtag small. Rhodamine labeled RPtag small at the indicated concentration was incubated with unlabeled RPtag large and the association measured by fluorescence anisotropy. L-S complex concentration was calculated by the equation (r−rmin)/(rmax−rmin)*[S] where r is the measured anisotropy, rmin is the anisotropy in the absence of any RPtag large, rmax is the anisotropy measured in the presence of at saturating RPtag large, and [S] is the total concentration of RPtag small used in the experiment. […] Dashed cyan lines are simulations of the mechanism shown in f using the rate constants detailed herein. The concentrations in the simulations were multiplied by a correction factor of 0.925, which is well within the 90% purity specification of the purchased peptide.\nLS complex was performed by incubating 1000 nM RPtag large with the indicated concentrations of rhodamine labeled RPtag small. At the start of the experiment, 0.1 mM unlabeled native RPtag small was added and fluorescence anisotropy monitored. Data processing was done as in panel a, except the red fits were to the single exponential decay equation y=y0+A*exp(−b*t). As expected, the initial dissociation rates were linear with respect to the LS complex.\nFitting to a line yields a rate constant (koff)=0.0091 min^−1 (FIG. 9 panel e). In good agreement, when the kinetics are fit with a first order rate law, a rate constant of 0.012±0.002 min^−1 (n=15) was observed. […] Panel e is a graph of the initial rates of the traces represented in d. Slope of the fit line is 0.0091 min^−1. Data are mean±SE (n=3).\nThe library of mutant RPtag(small) peptides, described above, was next analyzed to measure off rates (koff). The on rate was also calculated from measured koff and Kd (S*-LS transition), except instead of using unlabeled native peptide as the competitor, we used unlabeled Nd2,P5A,E18A (the tightest binding RPtag(small) peptide identified). […] However, there were notable exceptions. […]"}
{"compound": "CC[C@H](C)[C@H](NC(=O)[C@H](CC(C)C)NC(=O)[C@H](CCCCN)NC(=O)[C@H](CC(C)C)NC(=O)[C@H](CCC(=O)O)NC(=O)[C@H](C)NC(=O)[C@@H]1CCCN1C(=O)[C@@H](NC(=O)[C@H](Cc1ccccc1)NC(=O)[C@H](CC(N)=O)NC(=O)[C@@H]1CCCN1C(=O)[C@@H](NC(=O)[C@H](CCCCN)NC(=O)[C@H](CCC(=O)O)NC(=O)[C@H](C)N)[C@@H](C)CC)[C@@H](C)CC)C(=O)N[C@H](C(=O)N[C@@H](CCCCN)C(=O)N[C@@H](CCC(=O)O)C(=O)N[C@@H](CC(N)=O)C(=O)N[C@H](C(=O)N[C@@H](CCC(N)=O)C(=O)O)C(C)C)[C@@H](C)O", "note": "[g1a]", "Keq (S-S*)": "2.3 ± 0.1"}
{"compound": "GEKIPNFIPAELKLITKENV [Cd1]", "Keq (S-S*)": "2.5 ± 0.3"}
{"compound": "KIANFIPAELKLITKANVQ [Nd2, p5a, e18a, KIANFIPAELKLITKANVQ]", "Keq (S-S*)": "0.3 ± 0.1"}
